PubChem BioAssay AID686937 – Drosophila RNAi Screening Center – 2013
Screen: 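Genes whose loss weakens secretory pathway function in fly cells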 (primary screen). Cell system: Drosophila S2 cells expressing secreted horseradish peroxidase. Reagents: long dsRNA against Drosophila genes. Duration: about 5.5 days (5 days dsRNA, then 12 h reporter induction). Treatment: reporter expression induced after 5 days of dsRNA, read 12 h later; inducer not stated. Read-out: 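After 5 days of dsRNA and 12 h of reporter induction, medium peroxidase read by chemiluminescence and scored as per-plate z-score; higher values mean more reporter released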. Scale: z-score: higher = more reporter secreted into medium.
The screen tested about 23,000 reagents; shown is an unselected part of those that have a named target and a result. 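Reduced-secretion tags in replicate 1 do not always agree with the z-scores; no criterion for assigning the tags was given.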 The numbers tell different reagents against one gene apart. Names joined by + are all predicted targets of the reagent. Further read-outs or replicates are left out here. Not stated in the record: the amount of reagent.

z-score, replicate 1, by target gene and reagent
ste24c + CR30461 (retired record): #1 0.45; #2 0.25
Cad89D: #1 -0.23
CG34136: #1 -0.33
Nup205: #1 -1.7
CG11113: #1 0.26
Achl: #1 0.24
lncRNA:CR43421: #1 0.16
Pax: #1 0.44; #2 0.63; #3 0.06
CG17147: #1 0.45
tkv + CR14033 + tRNA:Asp-GTC-2-1 + 1 more: #1 0.2
CG32453: #1 -0.59
CG15905: #1 0.53
CG11975: #1 0.56
Mov10: #1 0.16
CG15144: #1 0.49
fabp + sea: #1 0.41; #2 0.7
Sol1: #1 0.2; #2 0.13; #3 0.14
CG3108: #1 0.24
Jhbp1: #1 -0.22
CG1840: #1 -0.06
Hyccin: #1 0.52
Lcp65Aa: #1 0.16
melt: #1 0.5
Dus2: #1 0.19
ari-2: #1 0.32

Targets listed so far whose target name starts with F or f:
z-score, replicate 1, by target gene and reagent
fabp + sea: #1 0.41; #2 0.7

The results go on.
z-score, replicate 1, by target gene and reagent
pelo: #1 0.06
CG3650: #1 0.24
asRNA:CR43468 + Lfg: #1 0.37
Zip42C.1: #1 -0.01
Fum1: #1 0.38
UQCR-C2: #1 -1.23
Chs2: #1 0.01
l(3)72Dr: #1 0.43
18w: #1 0.38
t-Grip128: #1 0.17
CG40341 (retired record): #1 -2.27; #2 -1.9
Cog1: #1 -0.61
CG10866: #1 0.25
Rop: #1 -0.06
CecB: #1 0.69
AnxB10: #1 0.3
CG8925: #1 0.09; #2 0.35; #3 0.22
Polr3I: #1 0.07
FLASH: #1 0.84
mts: #1 -1.63
gukh: #1 0.35; #2 0.24; #3 0.31
CG4186: #1 0.25
CG4053: #1 0.56
wuc: #1 0.12
ced-6: #1 0.29
Jon65Ai: #1 0.32
CG42758: #1 0.28
heix: #1 0.1
gogo: #1 0.27; #2 0.43
Cpr97Eb: #1 0.38
SdhC: #1 0.43
CG4704: #1 0.43
polyph: #1 -0.05
CNT1: #1 0.31
Rnp4F: #1 0.26
Mtpalpha: #1 0.05
ppk12: #1 0.32
CG1965: #1 -0.1; #2 1.97
Su(z)3 (retired record): #1 -2.5
CG9231: #1 0.37
CG3880: #1 0.11; #2 -0.04
dup: #1 -5.65
Vha55: #1 0.19
